Data reported in the supplement of paper PMC12889115.
Some of the results follow. Values are raw readings; no control value is given beside them.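 In the initial screen, polymyxin B was used at a concentration that permeabilizes Salmonella's outer membrane but not its inner membrane. Maximum growth was set by DMSO wells with or without polymyxin B. Since plates varied, data were ranked per plate, and compounds giving the lowest OD600 advanced as hits.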

System: Salmonella enterica serovar Typhimurium SL1344
Test: bacterial growth OD600 after 18 h with compound and polymyxin B; higher = more bacterial growth (less inhibition)
Details: 50 µM, Mueller-Hinton broth

Compound	bacterial growth OD600 (polymyxin B 0.75 µg/mL)	bacterial growth OD600 (polymyxin B 1 µg/mL)
C=C(C)CN(CC)C(=O)c1ccc(OC2CCN(C3CCCC3)CC2)c(OC)c1	0.855	–
C=CCN(CC=C)C(=O)C1CCCN(C2CCN(C3Cc4ccccc4C3)CC2)C1 (stereo not drawn)	–	0.866
O=C(NCC1CCCN(C2CCCCC2)C1)C1(c2ccc(Cl)cc2)CC1 (stereo not drawn)	–	0.921
CN(CCOc1ccccc1)Cc1nc(-c2ccccc2)no1	–	1.06
O[C@H]1CN(Cc2ccc(-c3ccc(Cl)cc3)o2)C[C@@H]1N1CCOCC1	–	0.003
COc1ccc(OC2CCN(C3CCCC3)CC2)c(C(=O)N2CCCCC2CCCO)c1 (stereo not drawn)	–	1.18
COc1ccc(CNC(=O)CCC2CCCN(CC3CCCC3)C2)c(OC)c1 (stereo not drawn)	–	0.939
CCN1CCCC1CNC(=O)CCC1CCN(Cc2cccc(SC)c2)CC1 (stereo not drawn)	–	0.754

At a glance, 2 of the compounds above:
Compound	bacterial growth OD600 (polymyxin B 0.75 µg/mL)	bacterial growth OD600 (polymyxin B 1 µg/mL)
CN(CCOc1ccccc1)Cc1nc(-c2ccccc2)no1	–	1.06
O[C@H]1CN(Cc2ccc(-c3ccc(Cl)cc3)o2)C[C@@H]1N1CCOCC1	–	0.003
